{"source": "PubChem BioAssay AID504795 | Drosophila RNAi Screening Center, 2011", "aim": "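Knock-downs causing abnormal branching, bundling, swelling or growth of cultured neurons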 (primary screen)", "system": "primary Drosophila neurons and glia", "reagents": "long dsRNA against Drosophila genes, 250 ng dsRNA per well", "duration": "one week", "measurement": "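Descriptive morphology terms assigned by visual inspection of live automated images of GFP-marked cells, taken one week after adding 250 ng dsRNA per well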", "note": "Only reagents picked out of a larger screen are listed. 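Every listed dsRNA shows some phenotype; how reagents were selected for listing is not stated.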 Names joined by + are all predicted targets of the reagent. Reagent sequences are not shown."}
{"predicted target": "CG9875", "DRSC id": "DRSC04585", "phenotype seen, replicate 1": "axon bundles split apart"}
{"predicted target": "CG30492 (retired record) + M7BP", "DRSC id": "DRSC05055", "phenotype seen, replicate 1": "reduced axon outgrowth"}
{"predicted target": "CG30492 (retired record) + M7BP", "DRSC id": "DRSC06816", "phenotype seen, replicate 1": "axon bundles split apart"}
{"predicted target": "snRNP-U1-70K", "DRSC id": "DRSC03612", "phenotype seen, replicate 1": "reduced axon outgrowth"}
{"predicted target": "ppk13", "DRSC id": "DRSC02382", "phenotype seen, replicate 1": "axon bundles split apart"}
{"predicted target": "CG1468", "DRSC id": "DRSC17946", "phenotype seen, replicate 1": "too many neurite branches"}
{"predicted target": "Rlip", "DRSC id": "DRSC16828", "phenotype seen, replicate 1": "axon bundles split apart"}
{"predicted target": "Ssdp", "DRSC id": "DRSC16211", "phenotype seen, replicate 1": "too many neurite branches"}
{"predicted target": "SmD2", "DRSC id": "DRSC12536", "phenotype seen, replicate 1": "beaded; swollen axons"}
{"predicted target": "ZnT63C", "DRSC id": "DRSC21989", "phenotype seen, replicate 1": "reduced axon outgrowth"}
{"predicted target": "ND-B14.5AL", "DRSC id": "DRSC11795", "phenotype seen, replicate 1": "reduced axon outgrowth"}
{"predicted target": "TBPH", "DRSC id": "DRSC04660", "phenotype seen, replicate 1": "abnormal cell clusters"}
{"predicted target": "CG31871", "DRSC id": "DRSC02567", "phenotype seen, replicate 1": "abnormal cell clusters"}
{"predicted target": "CG15073", "DRSC id": "DRSC06506", "phenotype seen, replicate 1": "axon bundles split apart"}
{"predicted target": "c(2)M", "DRSC id": "DRSC01922", "phenotype seen, replicate 1": "too many neurite branches"}
{"predicted target": "CG7329", "DRSC id": "DRSC03046", "phenotype seen, replicate 1": "fewer cells"}
{"predicted target": "CG14115", "DRSC id": "DRSC10118", "phenotype seen, replicate 1": "sheet-like cell extensions", "phenotype seen, replicate 2": "axon bundles split apart"}
{"predicted target": "ND-MWFE", "DRSC id": "DRSC06364", "phenotype seen, replicate 1": "axon bundles split apart"}
{"predicted target": "CG11362", "DRSC id": "DRSC04106", "phenotype seen, replicate 1": "abnormal cell clusters"}
{"predicted target": "Eip63E", "DRSC id": "DRSC08658", "phenotype seen, replicate 1": "abnormal cell clusters"}
{"predicted target": "CG30265", "DRSC id": "DRSC21592", "phenotype seen, replicate 1": "axon bundles split apart"}
{"predicted target": "CG31211", "DRSC id": "DRSC21478", "phenotype seen, replicate 1": "too many neurite branches"}
{"predicted target": "sha", "DRSC id": "DRSC06331", "phenotype seen, replicate 1": "beaded; swollen axons"}
{"predicted target": "Lcp65Af", "DRSC id": "DRSC11213", "phenotype seen, replicate 1": "too many neurite branches"}
{"predicted target": "Argl + CG9515", "DRSC id": "DRSC03245", "phenotype seen, replicate 1": "reduced axon outgrowth"}
{"predicted target": "Pig1", "DRSC id": "DRSC18698", "phenotype seen, replicate 1": "reduced axon outgrowth"}
{"predicted target": "CG42527 (retired record) + Hr4", "DRSC id": "DRSC18495", "phenotype seen, replicate 1": "axon bundles split apart"}
{"predicted target": "loqs", "DRSC id": "DRSC02997", "phenotype seen, replicate 1": "abnormal cell clusters"}
{"predicted target": "pyd", "DRSC id": "DRSC14445", "phenotype seen, replicate 1": "axon bundles split apart"}
{"predicted target": "pyd", "DRSC id": "DRSC14509", "phenotype seen, replicate 1": "abnormal cell clusters", "phenotype seen, replicate 2": "too many neurite branches"}
{"predicted target": "pyd", "DRSC id": "DRSC16547", "phenotype seen, replicate 1": "abnormal cell clusters"}
{"predicted target": "pyd", "DRSC id": "DRSC17041", "phenotype seen, replicate 1": "too many neurite branches"}
{"predicted target": "Pus1", "DRSC id": "DRSC15548", "phenotype seen, replicate 1": "too many neurite branches"}
{"predicted target": "Polr2F", "DRSC id": "DRSC12366", "phenotype seen, replicate 1": "too many neurite branches"}
{"predicted target": "RpS12", "DRSC id": "DRSC11270", "phenotype seen, replicate 1": "too many neurite branches"}
{"predicted target": "robl62A", "DRSC id": "DRSC08153", "phenotype seen, replicate 1": "too many neurite branches"}
{"predicted target": "Hesr", "DRSC id": "DRSC19965", "phenotype seen, replicate 1": "sheet-like cell extensions"}
{"predicted target": "CG11192", "DRSC id": "DRSC06057", "phenotype seen, replicate 1": "axon bundles split apart"}
{"predicted target": "CG15345 (retired record)", "DRSC id": "DRSC22712", "phenotype seen, replicate 1": "axon bundles split apart"}
{"predicted target": "COX7AL", "DRSC id": "DRSC15313", "phenotype seen, replicate 1": "reduced axon outgrowth"}
{"predicted target": "CG7320", "DRSC id": "DRSC10810", "phenotype seen, replicate 1": "reduced axon outgrowth"}
{"predicted target": "CG9372", "DRSC id": "DRSC11068", "phenotype seen, replicate 1": "cell fragments present"}
{"predicted target": "RpS14b", "DRSC id": "DRSC18711", "phenotype seen, replicate 1": "abnormal cell clusters"}
{"predicted target": "Ctr9", "DRSC id": "DRSC08562", "phenotype seen, replicate 1": "too many neurite branches"}
{"predicted target": "CG42703", "DRSC id": "DRSC03973", "phenotype seen, replicate 1": "reduced axon outgrowth"}
{"predicted target": "Pcf11", "DRSC id": "DRSC05983", "phenotype seen, replicate 1": "sheet-like cell extensions"}
{"predicted target": "Lsp2", "DRSC id": "DRSC11216", "phenotype seen, replicate 1": "fewer cells"}

3 consecutive reagents already listed:
{"predicted target": "pyd", "DRSC id": "DRSC14445", "phenotype seen, replicate 1": "axon bundles split apart"}
{"predicted target": "pyd", "DRSC id": "DRSC14509", "phenotype seen, replicate 1": "abnormal cell clusters", "phenotype seen, replicate 2": "too many neurite branches"}
{"predicted target": "pyd", "DRSC id": "DRSC16547", "phenotype seen, replicate 1": "abnormal cell clusters"}
